# Results as given in PubChem BioAssay AID1347076 (National Center for Advancing Translational Sciences (NCATS), 2019).
# Hit rate of the full screen: of about 400,000 compounds, about 13,000 (3.2%) were called active. The shares of active, inactive and inconclusive entries below differ from those in the screen. The call rests on the fitted dose curve; in most records, active means well fitted cell-killing curve with a large enough effect; inconclusive means small, poorly fitted or top-dose-only effect, or effect the other way; inactive means flat fitted curve, though single readings scatter. Potencies of inconclusive entries are doubtful fits and often do not repeat.
# Assay: qHTS assay for MDR1-selective chemotherapeutics: Primary screen using the drug-selected MDR subline cells KB-V1; further: nearly all actives have a fitted effect of over 60% in size
# Conditions: KB-V1 MDR cells viability, CellTiter-Glo, 72 h; activity change, negative = cytotoxicity: at 46.1 µM (top of the series)
# Procedure, shortened: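 Cytotoxicity toward P-gp-expressing KB-V1 cells was determined as loss of CellTiter-Glo luminescence after 72 h at 37 degrees C. Compounds were tested in quantitative HTS format across a concentration range, with curves fitted to normalized data.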
# On the % scale 0 is the no-effect control and ±100 the full control effect; potency means the concentration at half of the fitted maximal effect.
Structure (SMILES),Potency,"activity change, negative = cytotoxicity"
FC(F)(F)c1ccc2c(c1)nnn2C1CCN(Cc2nnnn2Cc2ccccc2)CC1,"inconclusive: 5.8 µM [cytotoxic, full curve]",
Cc1ccc(-c2cc(C(=O)N3CCC4(CC3)OCCO4)no2)cc1,,inactive: 0%
CCC(c1nnnn1-c1ccc2c(c1)OCCO2)N1CCC(n2c(=O)[nH]c3ccccc32)CC1 (centres undefined),"inconclusive: 18.4 µM [cytotoxic, single point]",
CCOC(=O)c1ccc(N=C(c2ccccc2)c2c(O)n(C)c(=O)n(C)c2=O)cc1,"inconclusive: 20.6 µM [cytotoxic, single point]",
c1ccc2c(CN3CCCCCCC3)c[nH]c2c1,active: 14.6 µM,
Cc1cc(C)cc(OCCOc2cccc(C=C3C(=O)NC(=O)NC3=O)c2)c1,"inconclusive: 29.1 µM [rising, single point]",
COc1cccc(C(c2nnnn2Cc2ccccc2)N2CCC(n3c(=O)[nH]c4ccccc43)CC2)c1OC (centres undefined),active: 18.4 µM,
c1ccc(CCn2nnnc2CN2CCC(n3nnc4ccccc43)CC2)cc1,active: 5.8 µM,
Cc1ccccc1Cc1c(C)nc2nc(SCC(=O)N3CCC4(CC3)OCCO4)nn2c1C,"inconclusive: 18.4 µM [cytotoxic, single point]",
COc1cc([N+](=O)[O-])c2ncccc2c1[N+](=O)[O-],active: 16.4 µM,
Cc1cc(C(=O)OCC(=O)Nc2ccc(F)cc2)c(C)n1C1CC1,active: 23.1 µM,
C[C@H]1CCCC(=O)CCCCCc2cc(O)cc(O)c2C(=O)O1,"inconclusive: 25.9 µM [cytotoxic, single point]",
Cc1cccc(CNCCc2ccccc2)n1,"inconclusive: 0.92 µM [cytotoxic, full curve, poor fit]",
COC(=O)c1ccc(NC(=O)CSc2nc3ccc(N4C(=O)C5C6C=CC(C6)C5C4=O)cc3s2)cc1 (centres undefined),active: 20.6 µM,
CN(Cc1cccc(-c2cccnc2)c1)C(=O)Oc1ccc([N+](=O)[O-])cc1,"inconclusive: 29.1 µM [cytotoxic, partial curve, poor fit]",
CCN(CC)C(=O)c1ccc(NC(=O)Nc2ccccc2F)cc1,"inconclusive: 13 µM [cytotoxic, partial curve, poor fit]",
CN(C)C(=O)Oc1ccc([N+](=O)[O-])cc1,,inactive: 4.57%
CC(C)(C)P(=O)(NCc1ccccc1)c1ccccc1 (centres undefined),"inconclusive: 8.2 µM [rising, partial curve]",
O=C(c1cc(-c2ccc(Cl)cc2)n(-c2ccc(Cl)cc2Cl)n1)N1CCOCC1,,inactive: 0%
CC(C)OP(=O)(OC(C)C)C(O)c1ccccc1F (centres undefined),"inconclusive: 8.2 µM [rising, partial curve]",
C[C@]12CCC3C(CCC4=CC(O)CC[C@@]43/C=N/O)C1(O)CCC2C1=CC(=O)OC1 (some centres undefined),active: 0.651 µM,
CC(=O)N1CCC2(CC1)CC(=O)c1cc(OCC(=O)N3CCN(C)CC3)ccc1O2,"inconclusive: 29.1 µM [rising, partial curve, poor fit]",
Cc1[nH]c2ccc(OC(F)(F)F)cc2c1CCNCc1cccc([N+](=O)[O-])c1,"inconclusive: 13 µM [cytotoxic, partial curve]",
COC(=O)C1=C(c2c(C)noc2C)C[C@@H]2CC[C@H]1N2C(=O)NCc1ccco1,,inactive: 11.9%
Nc1ccc(C2(c3ccc(N)cc3)CCCCC2)cc1,,inactive: -11.4%

Structure (SMILES),Potency,"activity change, negative = cytotoxicity"
CC12C=CC(=O)CC1CCC1C2CCC2(C)C(O)C(O)CC12 (centres undefined),"inconclusive: 29.1 µM [cytotoxic, single point]",
CN1C2CCC1CC(OC(=O)c1ccc([N+](=O)[O-])cc1)C2 (centres undefined),,inactive: -13.1%
CN1CCN(C(=O)Cc2nc3ccccc3[nH]2)CC1,,inactive: -11%
c1ccc2[nH]c(CCNC3CCCCC3)nc2c1,,inactive: 5.74%
CCOC(=O)c1c(C)n(CCN2CCN(C)CC2)c2ccc(OC)cc12,"inconclusive: 8.2 µM [cytotoxic, partial curve, poor fit]",
O=P(Nc1c(Cl)cccc1Cl)(c1ccccc1)c1nc2c(s1)CCCC2 (centres undefined),"inconclusive: 20.6 µM [cytotoxic, single point]",
CC(=NCc1ccc(F)cc1)c1c(O)n(C)c(=O)n(C)c1=O,"inconclusive: 25.9 µM [cytotoxic, single point]",
CN1CCc2nc(SCc3ccccc3Br)c(C#N)cc2C1,"inconclusive: 20.6 µM [cytotoxic, single point]",
COc1c(C)cc(C(=O)C2CCCN(Cc3cccc(O)c3)C2)cc1C (centres undefined),,inactive: -16.4%
COC1=C(OC)[C@]23CCc4ccc(OC)c(OC)c4[C@]2(CCN3C)CC1=O,,inactive: -0.607%
CCC(=NCCCN1CCOCC1)c1c(O)n(-c2ccccc2C)c(=O)[nH]c1=O,,inactive: 8.68%
CNCC(C)c1ccccc1 (centres undefined),,inactive: 0%
CN1CCCC1c1ccc(=O)[nH]c1 (centres undefined),,inactive: 2.86%
CC12CCC3c4ccc(OP(=O)(N5CC5)N5CC5)cc4CCC3C1CCC2=O (centres undefined),"inconclusive: 29.1 µM [cytotoxic, single point]",
O=C(c1cc(C(=O)NCc2ccc(Cl)cc2)c(=O)n(Cc2ccc(Cl)cc2)c1)c1cc(F)ccc1O,active: 7.31 µM,
CCc1cc2c(s1)NC(=O)CN=C2c1cccs1,"inconclusive: 29.1 µM [cytotoxic, single point]",
CCC(C)NC(=O)c1c(N)n(CCCOC)c2nc3ccccc3nc12 (centres undefined),active: 8.2 µM,
CCOC(=O)c1c(N)n(Cc2ccco2)c2nc3ccccc3nc12,,inactive: 0%
CCOC(=O)C1C(=O)NC2(C)CC1c1cc(OC)ccc1O2 (centres undefined),,inactive: 1.73%
C[C@]12CC[C@H](O)C[C@H]1CC[C@@H]1[C@@H]2CC[C@]2(C)[C@@H](C3=CC(=O)OC3)CC[C@]12O,active: 1.46 µM,
CCCCNC(=O)CN1C(=O)CN=C(c2ccccc2)c2ccccc21,"inconclusive: 14.6 µM [cytotoxic, partial curve]",
O=[N+]([O-])c1c(Cl)c(Cl)c(Cl)c(Cl)c1Cl,,inactive: 27.5%
Cc1nn(Cc2ccccc2)c(C)c1C(=O)OCC(=O)Nc1ccccc1SCC#N,active: 7.31 µM,
CCOC(=O)C1CCN(/C=C2/C(=O)NC(=O)N(c3ccc(OCC)cc3)C2=O)CC1,,inactive: 4.44%
CC1=C(C(=O)O)N2C(=O)C(NC(=O)CCCC(=O)O)C2SC1 (centres undefined),,inactive: -1.54%

Structure (SMILES),Potency,"activity change, negative = cytotoxicity"
COc1ccc(-n2nnnc2C(CCc2ccccc2)N2CCC(n3c(=O)[nH]c4ccccc43)CC2)cc1 (centres undefined),"inconclusive: 29.1 µM [cytotoxic, single point]",
CC(C)(C)C(=O)c1cn(Cc2ccccc2)c2ccccc12,"inconclusive: 8.2 µM [cytotoxic, partial curve]",
O=[N+]([O-])c1ccc(NCCCN2CCOCC2)c2ncccc12,,inactive: -11.8%
Cc1ccc2c(c1N)C(=O)c1ccccc1C2=O,"inconclusive: 29.1 µM [cytotoxic, single point]",
COC(=O)C1=C(c2cc3ccccc3o2)C[C@@H]2CC[C@H]1N2C(=O)NCc1ccc(C(F)(F)F)cc1,"inconclusive: 29.1 µM [cytotoxic, single point]",
COc1ccc(-c2nn(CCC#N)cc2C(=O)NCc2ccccc2)cc1OC,"inconclusive: 0.58 µM [rising, full curve, poor fit]",
Cc1ccc(OP(=O)(O)Oc2ccc(C)cc2)cc1,"inconclusive: 29.1 µM [rising, single point]",
C=CCn1c(O)c(/C(C)=N/N2CCCCC2)c(=O)[nH]c1=O,"inconclusive: 29.1 µM [cytotoxic, single point]",
CCOC(=O)[C@]12Cc3ccccc3[C@H]1N(Cc1ccccc1)C(=O)c1cc(OC)ccc12,"inconclusive: 1.46 µM [cytotoxic, full curve, poor fit]",
CC(=O)Nc1ccccc1C(=O)OCc1ccc(F)cc1,"inconclusive: 29.1 µM [rising, single point]",
CCOC(=O)C1(Cc2ccc(Cl)cc2)CCN(C(C)CCn2cccn2)CC1 (centres undefined),"inconclusive: 6.51 µM [cytotoxic, partial curve, poor fit]",
Cn1c(O)c(C=Nc2ccccc2-c2ccccc2)c(=O)n(C)c1=O,,inactive: 25%
O=C1NC(=O)C(=Cc2ccc(Oc3ccc([N+](=O)[O-])cc3)cc2)C(=O)N1,,inactive: -10.4%
COC(=O)C12OCC34C(CC5C(C)=C(O)C(=O)CC5(C)C3C(O)C1O)OC(=O)C(OC(=O)/C=C(\C)C(C)C)C24 (centres undefined),active: 3.26 µM,
CN1CC(C(=O)c2ccc(Cl)cc2)C(c2ccc(Cl)cc2Cl)C1 (centres undefined),"inconclusive: 14.6 µM [cytotoxic, partial curve, poor fit]",
CN(C)C(=O)Oc1cccc(-c2cn3cc(Cl)ccc3n2)c1,active: 13 µM,
COc1cc(-n2c(=S)[nH]c3ccc(C)cc3c2=O)c(Cl)cc1Cl,active: 9.2 µM,
COc1ccc(-c2cc(-c3ccccc3)[n+](C)c(-c3ccccc3)c2)cc1,,inactive: 21.1%
CCOC(=O)[C@]12Cc3cc(OC)ccc3[C@H]1N(C(C)C)C(=O)c1cc(OC)ccc12,active: 6.51 µM,
CC(=O)O[C@H]1CC[C@@]2(C)C(=CC[C@@H]3[C@@H]2CC[C@]2(C)C(=O)CC[C@@H]32)C1,"inconclusive: 29.1 µM [cytotoxic, single point]",
Cc1cc(OCC(=O)NCC(O)c2ccccc2)c2c3c(c(=O)oc2c1)CCCC3 (centres undefined),,inactive: 0.589%
COC(=O)C1=C(c2cccc(OCc3ccccc3)c2)C[C@@H]2CC[C@H]1N2C(=O)NCc1ccc(N(C)C)cc1,"inconclusive: 23.1 µM [cytotoxic, partial curve, poor fit]",
O=C1NC(=O)N(c2ccc3c(c2)OCO3)C(=O)/C1=C/c1ccsc1,,inactive: -5.78%
O=[N+]([O-])c1cccc(CN2CCN(Cc3ccc(Cl)cc3)CC2)c1,"inconclusive: 25.9 µM [cytotoxic, single point]",

# Six entries picked at random from those above:
Structure (SMILES),Potency,"activity change, negative = cytotoxicity"
Cc1cc(C)cc(OCCOc2cccc(C=C3C(=O)NC(=O)NC3=O)c2)c1,"inconclusive: 29.1 µM [rising, single point]",
Cn1c(O)c(C=Nc2ccccc2-c2ccccc2)c(=O)n(C)c1=O,,inactive: 25%
Cc1cccc(CNCCc2ccccc2)n1,"inconclusive: 0.92 µM [cytotoxic, full curve, poor fit]",
CCOC(=O)c1c(N)n(Cc2ccco2)c2nc3ccccc3nc12,,inactive: 0%
O=P(Nc1c(Cl)cccc1Cl)(c1ccccc1)c1nc2c(s1)CCCC2 (centres undefined),"inconclusive: 20.6 µM [cytotoxic, single point]",
CCCCNC(=O)CN1C(=O)CN=C(c2ccccc2)c2ccccc21,"inconclusive: 14.6 µM [cytotoxic, partial curve]",
